Structures are written as SMILES. Where “and” joins values, the source holds several entries; their conditions need not be identical. Equal values may be shown once. Among all 1,500 compounds or so, about 460 (31%) were called active.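 The calls were made as follows: active = viability at or below 80% at any tested concentration, marking the compound as toxic; inactive = the rest.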 Only a part is listed here, and it is no random draw. Entries with a potency or affinity are not part of this list.

One may read the viability as a read-out of living cells in per cent, often relative to untreated cells.

The nature of the assay: THP-1 cell cytotoxicity, dose response, cytotoxicity control for Vif-APOBEC3G degradation inhibitor project, THP-1 cells (AID 1117359). The following applies: THP-1 viability, CellTiter-Glo luminescence, 72 h; at 40 µM (top of the series). On the technique in general: ATP-based viability assays read luminescence as a measure of living cells.
`COc1cc(N2C(=O)C=CC2=O)ccc1N1C(=O)C=CC1=O`: the viability is inactive: 98.3%.

Regarding `O=C1NCC(O)=C1C=NC12CC3CC(CC(C3)C1)C2`, the viability was inactive: 97.2%.

`CC(=O)N1CCN(c2ccc(NCc3ccccc3)cc2)CC1`: the viability was inactive: 90%.

Turning to `O=C1N=NC2=C1c1c3ccccc3c(O)n1CC2`, the viability was inactive: 102%.

Regarding `CCOC(=O)C1=C(O)/C(=C/c2ccc(CNC(=O)C(=O)Nc3ccc(C)cc3)o2)N=C1C`, the viability is inactive: 91%.

As to `COC(=O)C1C(O)C(C)C(O)C(C)(O)/C=C\C=C(/C)C(=O)Nc2c(C)c(OC(C)=O)c3c(c2O)C(=O)C(C)=C2OCOC(=C23)/C(C)=C/C(C)(O)C(O)C(C)C1O` (centres undefined), the viability was inactive: 97.4%.

Consider `O=C(Nc1ccc(Br)cn1)c1coc(=O)c(Br)c1`, for which the viability was inactive: 107%.

Regarding `Oc1ccc(/C=N/N2CCCCC2)c(O)c1O`, the viability was inactive: 111%.

In the case of `Cc1cc(/C=N/Nc2ccc([N+](=O)[O-])cn2)c(C)n1-c1ccc(C(=O)O)cc1`, the viability was inactive: 106%.

Take `COc1ccc(N2C3=C(CC4=C2CCCC4=O)C(=O)CCC3)cc1`: the viability was inactive: 96.5%.

For `CN(C)c1ccc(Cc2cc3c(O)ccc(O)c3cc(Cc3ccc(N(C)C)cc3)c2=O)cc1`, the viability is inactive: 85.4%.

Consider `CCOC(=O)C1=C(COC(=O)/C=C/c2ccco2)NC(=O)NC1C` (centres undefined), for which the viability was inactive: 96.1%.

For the compound `O=C1NC(=S)NC1=Cc1ccco1`, the viability was inactive: 103%.

Consider `CCN(CC(=O)Nc1ccc(NC(C)=O)cc1)C(=O)C1CCCC1`, for which the viability is inactive: 121%.

For `COc1cc2[nH]c(Cl)c([N+](=O)[O-])c2cc1OC`, the viability was inactive: 90.3%.

Consider `CC(=O)Nc1ccc(NC(=O)C(C)OC(=O)CCc2c[nH]c3ccccc23)cc1` (centres undefined), for which the viability was inactive: 81.5%.

With `NNc1ccc([N+](=O)[O-])c2[nH][nH]c(=O)c12`, the viability was inactive: 104%.

For the compound `COc1cccc(CN2CCNC(=O)C2CC(=O)NCCn2nc(C)cc2C)c1OC` (centres undefined), the viability was inactive: 93.5%.

Regarding `O=c1cc2c(=O)oc3cc(O)c(O)oc3c2c(O)c1O`, the viability was inactive: 103% and inactive: 83.2%.

Consider `CCCCOc1cccc(C(=O)NC(=S)Nc2ccc(Cl)c(C(=O)O)c2)c1`, for which the viability is inactive: 103%.

For `Cc1ccc(-n2c(-c3cc(-c4ccco4)[nH]n3)n[nH]c2=S)c(Br)c1`, the viability was inactive: 104%.

In the case of `CCOC(=O)C1Nc2ccc(Br)cc2C2C=CCC12` (centres undefined), the viability was inactive: 84.6%.

With `COc1cc([N+](=O)[O-])ccc1NC(=O)Oc1ccc(NC(C)=O)cc1`, the viability was inactive: 93.7%.

`CCOC(=O)C(C)N1C(=O)S/C(=C\c2ccc(-c3ccccc3C(=O)O)o2)C1=O` (centres undefined): the viability is inactive: 93.5%.

In the case of `CC(=O)c1ccccc1NC(=O)COC(=O)CN1C(=O)C2CCCCC2C1=O` (centres undefined), the viability is inactive: 85.4%.

For the compound `CCCOc1ccc(N)cc1N`, the viability was inactive: 92.5%.

As for `COC(=O)c1c(NC(=O)COC(=O)c2ccc(NC(=O)CC#N)cc2)sc2c1CCCCC2`, the viability was inactive: 106%.

On to `O=C1CCCC(O)=C1N=Nc1cccc(C(=O)O)c1`, for which the viability is inactive: 99.9%.

With `O=C(NN1C(=O)/C(=C/C=C/c2ccco2)SC1=S)c1ccccc1O`, the viability is inactive: 107%.

Turning to `O=C(Cn1c2[n+](c3ccc(C(F)(F)F)cc31)CCCCC2)Nc1c(F)cccc1F`, the viability is inactive: 82.4%.

For `N[C@@H](Cc1c[nH]c2ccccc12)C(=O)O`, the viability is inactive: 93%.

As to `COC(=O)CCC(=O)OC1(C)C(=O)C=C2C=C3CCCN3C=C2C1=O` (centres undefined), the viability is inactive: 95%.

On to `O=C1/C(=C/C=C/c2ccco2)SC(=S)N1NS(=O)(=O)c1ccccc1`, for which the viability was inactive: 105%.

`CC(=O)c1sc2nc(-c3ccco3)ccc2c1N`: the viability was inactive: 101%.

As for `COc1cccc(/C=N/n2c(-c3cc(C)[nH]n3)n[nH]c2=S)c1`, the viability was inactive: 95%.

Take `CC1=NN(C(N)=S)C(=O)C1N=Nc1cccc([N+](=O)[O-])c1` (centres undefined): the viability is inactive: 102%.

With `O=C1CCCC(O)=C1N=Nc1ccc(S(=O)(=O)N2CCOCC2)cc1`, the viability is inactive: 107%.

As to `CCOC(=O)C(CC(=O)O)=C(c1ccccc1)c1ccccc1`, the viability is inactive: 96.4%.

Take `O=[n+]1c2c(n([O-])c3cc(Br)ccc31)CCC2`: the viability was inactive: 109%.

In the case of `CC(=O)Nc1cc(NC(C)=O)cc(C(=O)N2CCCC3CCCCC32)c1` (centres undefined), the viability is inactive: 104%.

For `O=C(O)c1cc(N2N=C(C(F)(F)F)/C(=C/C=C/c3ccco3)C2=O)ccc1Cl`, the viability is inactive: 99.9%.

On to `Cc1c(N=C2C=C(Br)C(=O)C(Br)=C2)c(=O)n(-c2ccccc2)n1C`, for which the viability is inactive: 102%.

On to `CCOC(=O)N1CCN(S(=O)(=O)c2ccc3c(c2)C(C)C(=O)N3)CC1` (centres undefined), for which the viability was inactive: 86.9%.

Turning to `O=C(/C=C/c1ccco1)NC(=S)Nc1ccc(C(=O)O)cc1`, the viability is inactive: 104%.

As for `O=C(NCC1CCCO1)c1c(O)c2c([nH]c1=O)CCCC2` (centres undefined), the viability is inactive: 86.3%.

Take `O=c1cc(-c2ccc(O)cc2)oc2c(O)c(O)c(O)c(O)c12`: the viability was inactive: 90.9%.

As for `Cc1ccc(C(CC(=O)NCc2ccco2)c2ccccc2)c(O)c1` (centres undefined), the viability was inactive: 91.1%.

As for `COc1ccc(-c2nnc(-c3ccc(N)cc3)o2)cc1`, the viability was inactive: 89.8%.

Turning to `CCC1=NN2C(=N)/C(=C\c3ccc(SCc4ccco4)o3)C(=O)N=C2S1`, the viability is inactive: 107%.

As to `CCOC(=O)c1ccc(CC(=O)c2ccc(O)c(O)c2O)o1`, the viability was inactive: 97.4%.

In the case of `NS(=O)(=O)c1ccc(N=Nc2c[nH]c(=O)c(O)c2)cc1`, the viability is inactive: 87.9% and inactive: 88.2%.

`CN1C(=O)/C(=C/c2ccco2)SC1=Nc1cccc(C(=O)O)c1`: the viability is inactive: 106%.

On to `CN(C)NC(=S)NC1CCS(=O)(=O)C1` (centres undefined), for which the viability was inactive: 98.9%.

For the compound `CC(Sc1nnc(C2CC2)n1C)C(=O)Nc1ccc(N2CCOCC2)cc1` (centres undefined), the viability was inactive: 87.6%.

In the case of `O=C(c1ccc(=O)oc1)N1CCCc2ccccc21`, the viability was inactive: 84.4%.

Consider `Cc1ccc2c(c1C)NC(C(=O)O)C1CC=CC21` (centres undefined), for which the viability was inactive: 99.5% and inactive: 103%.

Consider `CNc1ccc(Br)cc(C(=O)/C=C/c2ccc(Cl)cc2Cl)c1=O`, for which the viability was inactive: 94.8%.

In the case of `O=C(CCS(=O)(=O)c1ccc(Br)cc1)N1CCN(c2ccc(F)cc2)CC1`, the viability was inactive: 90.7%.

Regarding `Cc1ccnc(N2CCCC(C(=O)Nc3cc(F)ccc3C)C2)n1` (centres undefined), the viability is inactive: 104%.
